Laboratory results as given in PubChem BioAssay AID248 (DTP/NCI, 2004).
The list shows only some results of the screen, not a fair sample: it gathers tests that were run many times, whatever their T/C, doses with no T/C, and many T/C values between a quarter and a half above the control. Further doses and runs are listed elsewhere. T/C: endpoint of the treated group in % of that of the vehicle group. Some entries give survivors of the animals treated and no T/C: the source files T/C as zero there, which appears to mark a toxic dose or a test without result, not a measured value. Some doses without a T/C left all or most animals alive at the check, yet need not have been tolerated: survival well below the control is almost never listed, so the zero probably covers shortened survival too. Survivors were counted at the toxicity check, usually on the fifth day, unless a day is given; later deaths do not show. Schedule codes are those of the source, taken here to give the interval after Q, in days (D) or hours (H), and the number of doses after X. Some entries were tested several times; their values stand side by side, smallest first. Some structures stand for samples that the source files as different forms (salt, stereo form or complex); doses refer to the form tested. For survival time, the PubChem record calls one and a half times the control and up active, and a quarter to a half above the control has no call in these data; cut-offs in other NCI protocols can differ. Some T/C values are followed by the survivors on the day toxicity was checked, most often the fifth; where none is given, no animal had died by that day. Signs of the kind (2×) say how often a value occurs here. Some schedules carry Z or #; the key to these is not given.

Tested on: L1210 leukemia ip in BDF1 mice, survival T/C
Test: NCI In Vivo Anticancer Drug Screen. Data for tumor model L1210 Leukemia (intraperitoneal) in B6D2F1 (BDF1) mice
Conditions: T/C endpoint: mean survival time, higher T/C = longer survival
[1] = dose: 200.0 mg/kg/injection, schedule: Q04DX003 (ip), vehicle: Klucel (hydroxypropylcellulose) (HPC)
[2] = dose: 400.0 mg/kg/injection, schedule: Q01DX001 (ip), vehicle: carboxymethylcellulose (CMC)
[3] = dose: 400.0 mg/kg/injection, schedule: Q04DX003 (ip), vehicle: saline
[4] = dose: 50.0 mg/kg/injection, schedule: Q01DX009 (ip), vehicle: saline
[5] = dose: 200.0 mg/kg/injection, schedule: Q01DX001 (ip), vehicle: carboxymethylcellulose (CMC)
[6] = dose: 100.0 mg/kg/injection, schedule: Q04DX003 (ip), vehicle: saline with Tween-80
[7] = dose: 200.0 mg/kg/injection, schedule: Q04DX003 (ip), vehicle: saline with Tween-80
[8] = dose: 400.0 mg/kg/injection, schedule: Q04DX003 (ip), vehicle: saline with Tween-80
[9] = dose: 100.0 mg/kg/injection, schedule: Q01DX001 (ip), vehicle: saline
[10] = dose: 300.0 mg/kg/injection, schedule: Q01DX001 (ip), vehicle: saline

In the case of `COc1cc2c(ccc3c4cc(OC)c(OC)cc4c[n+](C)c23)cc1O`, the T/C (dose: 40.0 mg/kg/injection, schedule: Q01DX009 (ip), vehicle: saline) is reported as 137 % of control, the T/C (dose: 40.0 mg/kg/injection, schedule: Q04DX003 (ip), vehicle: saline) is reported as 143 % of control and the T/C (dose: 80.0 mg/kg/injection, schedule: Q04DX003 (ip), vehicle: saline) is reported as 145 % of control. The T/C (dose: 100.0 mg/kg/injection, schedule: Q04DX003 (ip), vehicle: Klucel (hydroxypropylcellulose) (HPC)) was 134 % of control, the T/C (dose: 160.0 mg/kg/injection, schedule: Q01DX009 (ip), vehicle: saline) was 145 % of control and the T/C (dose: 160.0 mg/kg/injection, schedule: Q04DX003 (ip), vehicle: saline) was 136 % of control. For the same compound, the T/C [1] was 125 and 132 % of control, the T/C (dose: 320.0 mg/kg/injection, schedule: Q04DX003 (ip), vehicle: saline) was 137 % of control and the T/C (dose: 400.0 mg/kg/injection, schedule: Q04DX003 (ip), vehicle: Klucel (hydroxypropylcellulose) (HPC)) was 132 % of control.
`O=S1(=O)CC(Cl)C1` was tested, and the survivor count [2] was 1 of 4.
In the case of `CC(C)c1ccc(/C=N\[N+](C)(C)C)cc1`, the survivor count [3] is reported as 0 of 3.
With `CN1C(=O)CC2(CCN(CCCC(=O)c3ccc(F)cc3)CC2)C1=O` the T/C (dose: 25.0 mg/kg/injection, schedule: Q01DX009 (ip), vehicle: saline) was 126 and 129 % of control, the survivor count [4] was 2 of 6 and the survivor count (dose: 100.0 mg/kg/injection, schedule: Q01DX009 (ip), vehicle: saline) was 0 of 6. For the same compound, the survivor count (dose: 200.0 mg/kg/injection, schedule: Q04DX003 (ip), vehicle: alcohol) was 5 of 6 and the survivor count (dose: 400.0 mg/kg/injection, schedule: Q04DX003 (ip), vehicle: alcohol) was 5 of 6.
For `S=c1[nH]c2ccc(Cl)cc2s1`, the survivor count [1] was 6 of 6.
`C=C(C)CSC(=S)NNc1ccccc1` was tested, and the survivor count (dose: 335.0 mg/kg/injection, schedule: Q01DX009 (ip), vehicle: saline with Tween-80) was 3 of 6.
`CC1(C)CC(N)CC(C)(C)N1` was tested, and the survivor count [5] was 0 of 4 and the survivor count [2] was 0 of 4.
`CC1([CH2][Hg][Cl])Cc2ccccc2O1` (stereo not drawn) was tested, and the survivor count (dose: 12.5 mg/kg/injection, schedule: Q04DX003 (ip), vehicle: saline with Tween-80) was 4 of 6, the survivor count (dose: 25.0 mg/kg/injection, schedule: Q04DX003 (ip), vehicle: saline with Tween-80) was 1 of 6 and the survivor count [6] was 0 of 6. For the same compound, the survivor count [7] was 0 of 6 and the survivor count [8] was 0 of 6.
For `CCCCCCCCCCCCn1ncc2ccc([N+](=O)[O-])cc21`, the survivor count [9] was 4 of 4 and the survivor count (dose: 200.0 mg/kg/injection, schedule: Q01DX001 (ip), vehicle: saline) was 4 of 4.
In the case of `CN=C(NN)NN`, the survivor count (dose: 40.0 mg/kg/injection, schedule: Q01DX001 (ip), vehicle: saline) is reported as 0 of 6, the survivor count (dose: 75.0 mg/kg/injection, schedule: Q01DX001 (ip), vehicle: saline) is reported as 0 of 6 and the survivor count (dose: 150.0 mg/kg/injection, schedule: Q01DX001 (ip), vehicle: saline) is reported as 0 of 6. For the same compound, the survivor count [10] was 0 of 6.
With `CCCCCCCC(=O)N1CCCN(C(=O)CCCCCCC)C1` the survivor count [10] was 2 of 6.
With `O=C(Nc1ccc(OCc2ccccc2)cc1)c1ccc([N+](=O)[O-])s1` the survivor count (dose: 50.0 mg/kg/injection, schedule: Q01DX005 (ip), vehicle: water) was 4 of 4, the survivor count (dose: 100.0 mg/kg/injection, schedule: Q01DX005 (ip), vehicle: water) was 4 of 4 and the survivor count (dose: 200.0 mg/kg/injection, schedule: Q01DX005 (ip), vehicle: water) was 3 of 4.
In the case of `Cc1ccc(S(=O)(=O)NCCCCCC(=O)OCc2ccccc2)cc1`, the survivor count (dose: 400.0 mg/kg/injection, schedule: Q01DX009 (ip), vehicle: saline) is reported as 4 of 6.
In the case of `COc1cc(\C=N/N=C/C=C/c2ccccc2)cc(OC)c1OC`, the T/C [6] is reported as 87, 88, 95 % of control, the survivor count [6] is reported as 3 of 3 and the T/C [7] is reported as 90, 93, 95 % of control (2×).
For `CCCC[P+](CO)(CCCC)CCCC`, the survivor count [9] was 3 of 6 and the survivor count [10] was 0 of 6.
With `S=C([S-])N1CCN(c2ccccc2)CC1.S=C([S-])N1CCN(c2ccccc2)CC1.[Zn]` the survivor count (dose: 100.0 mg/kg/injection, schedule: Q04DX003 (ip), vehicle: saline) was 6 of 6 and the survivor count [3] was 1 of 6.
With `O=C1NC(c2ccccc2)(c2ccccc2)C(=O)N1SC(Cl)(Cl)Cl` the survivor count (dose: 100.0 mg/kg/injection, schedule: Q04DX002 (ip), vehicle: Klucel (hydroxypropylcellulose) (HPC)) was 1 of 3 and 2 of 3, the survivor count (dose: 200.0 mg/kg/injection, schedule: Q04DX002 (ip), vehicle: Klucel (hydroxypropylcellulose) (HPC)) was 0 of 3 and the survivor count (dose: 400.0 mg/kg/injection, schedule: Q04DX002 (ip), vehicle: Klucel (hydroxypropylcellulose) (HPC)) was 0 of 3.
With `Cc1ccccc1C(=O)C(C#N)c1ccccc1` (stereo not drawn) the survivor count [6] was 6 of 6, the survivor count (dose: 200.0 mg/kg/injection, schedule: Q01DX001 (ip), vehicle: saline with Tween-80) was 3 of 6 and the survivor count (dose: 200.0 mg/kg/injection, schedule: Q04DX002 (ip), vehicle: saline with Tween-80) was 0 of 3 and 3 of 6. The survivor count (dose: 400.0 mg/kg/injection, schedule: Q04DX002 (ip), vehicle: saline with Tween-80) was 0 of 3 and 0 of 6.
For `COc1cc2c(c(OC)c1OC)-c1ccc(OC)c(=O)cc1[C@@H](NC(=O)c1ccccc1)CC2`, the T/C (dose: 1.1 mg/kg/injection, schedule: Q01DX Z (ip), vehicle: methylcellulose (MC)) was 135 % of control [5 of 6 alive], the T/C (dose: 1.7 mg/kg/injection, schedule: Q01DX Z (ip), vehicle: methylcellulose (MC)) was 129 % of control [5 of 6 alive] and the T/C (dose: 3.7 mg/kg/injection, schedule: Q01DX015 (ip), vehicle: carboxymethylcellulose (CMC)) was 131 % of control. For the same compound, the T/C (dose: 5.6 mg/kg/injection, schedule: Q01DX015 (ip), vehicle: carboxymethylcellulose (CMC)) was 129 % of control, the T/C (dose: 8.4 mg/kg/injection, schedule: Q01DX015 (ip), vehicle: carboxymethylcellulose (CMC)) was 143 % of control and the survivor count (dose: 14.4 mg/kg/injection, schedule: Q01DX015 (ip), vehicle: carboxymethylcellulose (CMC)) was 0 of 6 and 1 of 6. The T/C (dose: 18.0 mg/kg/injection, schedule: Q01DX001 (ip), vehicle: carboxymethylcellulose (CMC)) was 127 % of control, the survivor count (dose: 24.0 mg/kg/injection, schedule: Q01DX015 (ip), vehicle: carboxymethylcellulose (CMC)) was 0 of 6 and the T/C (dose: 40.0 mg/kg/injection, schedule: Q01DX001 (ip), vehicle: carboxymethylcellulose (CMC)) was 127 and 135 % of control [3 of 4 alive]. The survivor count (dose: 40.0 mg/kg/injection, schedule: Q01DX015 (ip), vehicle: carboxymethylcellulose (CMC)) was 0 of 6, the survivor count (dose: 50.0 mg/kg/injection, schedule: Q01DX001 (ip), vehicle: carboxymethylcellulose (CMC)) was 2 of 4 and the survivor count (dose: 60.0 mg/kg/injection, schedule: Q01DX001 (ip), vehicle: carboxymethylcellulose (CMC)) was 0 of 4. The survivor count (dose: 80.0 mg/kg/injection, schedule: Q01DX001 (ip), vehicle: carboxymethylcellulose (CMC)) was 1 of 4, the survivor count (dose: 100.0 mg/kg/injection, schedule: Q01DX001 (ip), vehicle: carboxymethylcellulose (CMC)) was 1 of 4 and the survivor count [5] was 0 of 4. The survivor count [2] was 0 of 4.
In the case of `COC(=O)/C=C(\C)Nc1cccc([N+](=O)[O-])c1`, the survivor count (dose: 200.0 mg/kg/injection, schedule: Q01DX001 (ip), vehicle: other) is reported as 2 of 6 and the survivor count (dose: 400.0 mg/kg/injection, schedule: Q01DX001 (ip), vehicle: other) is reported as 0 of 6.
`COc1ccc2c3csc4ccccc4c-3nc2c1` was tested, and the survivor count [4] was 3 of 6 and the survivor count (dose: 100.0 mg/kg/injection, schedule: Q01DX009 (ip), vehicle: Klucel (hydroxypropylcellulose) (HPC)) was 0 of 6.
For `c1ccc2c(c1)OCC(CNC1CCCCC1)O2` (stereo not drawn), the survivor count (dose: 50.0 mg/kg/injection, schedule: Q04DX003 (ip), vehicle: saline with Tween-80) was 6 of 6, the survivor count [7] was 5 of 6 and the survivor count [8] was 1 of 6.
